# Test results from patent US20050113317A1, “Combination of dehydroepiandrosterone or dehydroepiandrosterone-sulfate with a cromone for treatment of asthma or chronic obstructive pulmonary disease” (priority 2003, published 2005).
# Assay: Aerosolization with single-dose Acu-Breathe device into Andersen cascade impactor (fine particle fraction)
# Conditions: neat powder, 30 to 75 L/min
compound,measurement,value
CC12CCC3C(CC=C4CC(OS(=O)(=O)[O-])CCC43C)C1CCC2=O.[Na+] (stereo not shown) [DHEA-S Dihydrate],fine particle fraction versus virtually anhydrous material,higher fine particle fraction than the virtually anhydrous material
